Results are given in words; binding and its absence hold for the method and conditions named. Some results given as binding are weak or reduced against the parent protein; the word gives no strength.
Target: recombinant monkey CD73 protein (monkey)
Test: ELISA, recombinant monkey CD73 coated at 3 ug/mL

B1: humanized CQ137 monoclonal antibody (137-3) (antibody, V domains shown)
VH: QVQLVQSGAEVKKPGSSVKVSCKASGYSFTGYYIHWVRQAPGQGLEWMGRINPYNGATTYNQNFKDRVTITVDKSTSTAYMELSSLRSEDTAVYYCARFHYGAPDYWGQGTLVTVSS
VL: DIQMTQSPSSLSASVGDRVTITCKASQDINTYLTWYQQKPGKAPKTLIYRANILVDGVPSRFSGSGSGTDFTLTISSLQPEDFATYYCLQYDEFPLTFGGGTKVEIKR
In the case of B1, the binding is reported as “binds”.

Reference: patent US20240174763A1 (NOVOPROTEIN SCIENTIFIC, published 2024)
